Earlier results, collected in patent US20200399642A1, “METHODS AND COMPOSITIONS FOR TREATING AND PREVENTING METASTATIC TUMORS” (IMMUNE PHARMACEUTICALS, INC., priority 2017, published 2020).
At least one compound was matched to its structure with a doubt left.

Test system: metastatic melanoma
Conditions: single-agent chemotherapy; cited from earlier work

SMILES: CN(C)/N=N/c1[nH]cnc1C(N)=O [dacarbazine]
- response rates: 15-20%
